Here are results for four molecules from PMC5460038.

By UniProt entry, the sequences of proteins in these tests, tags left out.
UniProt Q9Y484: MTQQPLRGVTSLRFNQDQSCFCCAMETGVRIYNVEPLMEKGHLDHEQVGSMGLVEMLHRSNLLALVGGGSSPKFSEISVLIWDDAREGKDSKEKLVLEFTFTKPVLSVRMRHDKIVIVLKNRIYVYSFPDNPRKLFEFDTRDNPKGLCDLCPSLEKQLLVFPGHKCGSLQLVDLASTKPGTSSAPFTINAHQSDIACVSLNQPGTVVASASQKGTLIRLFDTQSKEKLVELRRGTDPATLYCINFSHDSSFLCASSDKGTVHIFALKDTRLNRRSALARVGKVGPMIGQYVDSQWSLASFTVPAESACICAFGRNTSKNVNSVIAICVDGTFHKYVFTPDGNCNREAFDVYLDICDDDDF
UniProt Q5MNZ9: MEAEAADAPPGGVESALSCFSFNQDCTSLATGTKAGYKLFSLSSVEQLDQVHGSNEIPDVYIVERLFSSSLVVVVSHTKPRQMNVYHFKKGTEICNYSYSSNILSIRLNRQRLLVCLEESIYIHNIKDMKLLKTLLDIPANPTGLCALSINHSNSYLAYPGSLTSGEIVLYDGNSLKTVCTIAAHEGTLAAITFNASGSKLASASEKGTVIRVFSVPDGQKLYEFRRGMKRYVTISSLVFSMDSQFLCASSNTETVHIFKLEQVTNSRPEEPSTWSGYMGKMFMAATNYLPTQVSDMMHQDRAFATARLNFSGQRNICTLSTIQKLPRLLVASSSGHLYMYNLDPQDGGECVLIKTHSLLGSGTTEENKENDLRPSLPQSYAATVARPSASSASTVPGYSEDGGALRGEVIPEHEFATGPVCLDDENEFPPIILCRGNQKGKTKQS
UniProt Q5MNZ6: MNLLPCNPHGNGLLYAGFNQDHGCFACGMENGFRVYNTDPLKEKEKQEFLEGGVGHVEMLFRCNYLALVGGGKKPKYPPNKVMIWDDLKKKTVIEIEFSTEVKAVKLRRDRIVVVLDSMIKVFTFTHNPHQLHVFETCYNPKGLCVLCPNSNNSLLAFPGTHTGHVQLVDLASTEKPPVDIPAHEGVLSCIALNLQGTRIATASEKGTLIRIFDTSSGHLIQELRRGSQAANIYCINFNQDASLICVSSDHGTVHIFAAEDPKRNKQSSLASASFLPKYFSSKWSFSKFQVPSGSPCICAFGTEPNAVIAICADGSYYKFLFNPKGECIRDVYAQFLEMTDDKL
UniProt Q2TAZ0: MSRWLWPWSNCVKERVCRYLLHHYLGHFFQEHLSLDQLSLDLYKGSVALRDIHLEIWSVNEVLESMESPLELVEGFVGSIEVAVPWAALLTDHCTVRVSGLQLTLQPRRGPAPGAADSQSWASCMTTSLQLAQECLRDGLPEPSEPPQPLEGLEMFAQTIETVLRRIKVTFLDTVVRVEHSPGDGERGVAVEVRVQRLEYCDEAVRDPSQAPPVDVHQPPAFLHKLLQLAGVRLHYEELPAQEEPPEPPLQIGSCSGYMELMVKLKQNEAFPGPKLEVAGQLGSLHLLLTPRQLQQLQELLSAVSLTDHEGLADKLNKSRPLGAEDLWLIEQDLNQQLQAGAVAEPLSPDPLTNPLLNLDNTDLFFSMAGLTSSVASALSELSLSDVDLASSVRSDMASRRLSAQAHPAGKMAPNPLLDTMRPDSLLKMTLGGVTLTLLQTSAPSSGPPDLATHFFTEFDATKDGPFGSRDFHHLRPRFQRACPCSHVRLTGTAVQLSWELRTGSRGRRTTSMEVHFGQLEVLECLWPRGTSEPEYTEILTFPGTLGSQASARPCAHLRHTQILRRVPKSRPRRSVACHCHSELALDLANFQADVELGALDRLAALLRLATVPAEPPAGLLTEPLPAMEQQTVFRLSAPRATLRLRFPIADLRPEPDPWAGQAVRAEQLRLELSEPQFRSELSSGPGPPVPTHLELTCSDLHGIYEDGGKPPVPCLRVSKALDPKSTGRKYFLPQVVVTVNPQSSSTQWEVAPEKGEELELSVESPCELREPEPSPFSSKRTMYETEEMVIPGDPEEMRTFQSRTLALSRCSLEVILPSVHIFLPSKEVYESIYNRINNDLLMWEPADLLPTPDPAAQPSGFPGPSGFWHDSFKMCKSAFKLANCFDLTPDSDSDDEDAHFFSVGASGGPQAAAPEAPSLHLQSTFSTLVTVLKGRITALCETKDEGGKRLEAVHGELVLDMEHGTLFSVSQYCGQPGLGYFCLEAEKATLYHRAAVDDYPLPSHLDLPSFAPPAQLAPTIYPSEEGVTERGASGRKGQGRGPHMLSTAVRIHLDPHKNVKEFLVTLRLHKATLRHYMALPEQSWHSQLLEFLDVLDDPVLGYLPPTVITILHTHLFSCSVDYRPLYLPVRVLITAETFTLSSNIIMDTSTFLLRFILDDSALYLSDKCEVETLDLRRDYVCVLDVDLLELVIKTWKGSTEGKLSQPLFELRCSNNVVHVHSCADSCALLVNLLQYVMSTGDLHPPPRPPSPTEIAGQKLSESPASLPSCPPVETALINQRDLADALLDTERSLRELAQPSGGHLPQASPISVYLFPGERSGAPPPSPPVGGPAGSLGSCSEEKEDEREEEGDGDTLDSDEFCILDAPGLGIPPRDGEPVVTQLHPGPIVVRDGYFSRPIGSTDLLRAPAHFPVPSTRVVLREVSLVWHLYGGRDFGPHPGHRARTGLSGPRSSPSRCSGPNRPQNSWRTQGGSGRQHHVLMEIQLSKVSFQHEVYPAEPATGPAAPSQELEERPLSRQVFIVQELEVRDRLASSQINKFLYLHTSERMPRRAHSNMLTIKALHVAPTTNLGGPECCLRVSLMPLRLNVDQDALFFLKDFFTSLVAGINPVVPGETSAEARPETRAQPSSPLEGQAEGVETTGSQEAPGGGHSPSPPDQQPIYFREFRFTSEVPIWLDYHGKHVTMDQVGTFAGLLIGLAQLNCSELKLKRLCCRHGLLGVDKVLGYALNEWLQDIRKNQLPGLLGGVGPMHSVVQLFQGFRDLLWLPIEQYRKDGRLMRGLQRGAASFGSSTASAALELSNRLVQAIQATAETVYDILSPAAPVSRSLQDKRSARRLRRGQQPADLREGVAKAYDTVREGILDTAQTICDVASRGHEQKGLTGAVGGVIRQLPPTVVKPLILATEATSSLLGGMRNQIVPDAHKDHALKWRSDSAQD
UniProt Q96BY7: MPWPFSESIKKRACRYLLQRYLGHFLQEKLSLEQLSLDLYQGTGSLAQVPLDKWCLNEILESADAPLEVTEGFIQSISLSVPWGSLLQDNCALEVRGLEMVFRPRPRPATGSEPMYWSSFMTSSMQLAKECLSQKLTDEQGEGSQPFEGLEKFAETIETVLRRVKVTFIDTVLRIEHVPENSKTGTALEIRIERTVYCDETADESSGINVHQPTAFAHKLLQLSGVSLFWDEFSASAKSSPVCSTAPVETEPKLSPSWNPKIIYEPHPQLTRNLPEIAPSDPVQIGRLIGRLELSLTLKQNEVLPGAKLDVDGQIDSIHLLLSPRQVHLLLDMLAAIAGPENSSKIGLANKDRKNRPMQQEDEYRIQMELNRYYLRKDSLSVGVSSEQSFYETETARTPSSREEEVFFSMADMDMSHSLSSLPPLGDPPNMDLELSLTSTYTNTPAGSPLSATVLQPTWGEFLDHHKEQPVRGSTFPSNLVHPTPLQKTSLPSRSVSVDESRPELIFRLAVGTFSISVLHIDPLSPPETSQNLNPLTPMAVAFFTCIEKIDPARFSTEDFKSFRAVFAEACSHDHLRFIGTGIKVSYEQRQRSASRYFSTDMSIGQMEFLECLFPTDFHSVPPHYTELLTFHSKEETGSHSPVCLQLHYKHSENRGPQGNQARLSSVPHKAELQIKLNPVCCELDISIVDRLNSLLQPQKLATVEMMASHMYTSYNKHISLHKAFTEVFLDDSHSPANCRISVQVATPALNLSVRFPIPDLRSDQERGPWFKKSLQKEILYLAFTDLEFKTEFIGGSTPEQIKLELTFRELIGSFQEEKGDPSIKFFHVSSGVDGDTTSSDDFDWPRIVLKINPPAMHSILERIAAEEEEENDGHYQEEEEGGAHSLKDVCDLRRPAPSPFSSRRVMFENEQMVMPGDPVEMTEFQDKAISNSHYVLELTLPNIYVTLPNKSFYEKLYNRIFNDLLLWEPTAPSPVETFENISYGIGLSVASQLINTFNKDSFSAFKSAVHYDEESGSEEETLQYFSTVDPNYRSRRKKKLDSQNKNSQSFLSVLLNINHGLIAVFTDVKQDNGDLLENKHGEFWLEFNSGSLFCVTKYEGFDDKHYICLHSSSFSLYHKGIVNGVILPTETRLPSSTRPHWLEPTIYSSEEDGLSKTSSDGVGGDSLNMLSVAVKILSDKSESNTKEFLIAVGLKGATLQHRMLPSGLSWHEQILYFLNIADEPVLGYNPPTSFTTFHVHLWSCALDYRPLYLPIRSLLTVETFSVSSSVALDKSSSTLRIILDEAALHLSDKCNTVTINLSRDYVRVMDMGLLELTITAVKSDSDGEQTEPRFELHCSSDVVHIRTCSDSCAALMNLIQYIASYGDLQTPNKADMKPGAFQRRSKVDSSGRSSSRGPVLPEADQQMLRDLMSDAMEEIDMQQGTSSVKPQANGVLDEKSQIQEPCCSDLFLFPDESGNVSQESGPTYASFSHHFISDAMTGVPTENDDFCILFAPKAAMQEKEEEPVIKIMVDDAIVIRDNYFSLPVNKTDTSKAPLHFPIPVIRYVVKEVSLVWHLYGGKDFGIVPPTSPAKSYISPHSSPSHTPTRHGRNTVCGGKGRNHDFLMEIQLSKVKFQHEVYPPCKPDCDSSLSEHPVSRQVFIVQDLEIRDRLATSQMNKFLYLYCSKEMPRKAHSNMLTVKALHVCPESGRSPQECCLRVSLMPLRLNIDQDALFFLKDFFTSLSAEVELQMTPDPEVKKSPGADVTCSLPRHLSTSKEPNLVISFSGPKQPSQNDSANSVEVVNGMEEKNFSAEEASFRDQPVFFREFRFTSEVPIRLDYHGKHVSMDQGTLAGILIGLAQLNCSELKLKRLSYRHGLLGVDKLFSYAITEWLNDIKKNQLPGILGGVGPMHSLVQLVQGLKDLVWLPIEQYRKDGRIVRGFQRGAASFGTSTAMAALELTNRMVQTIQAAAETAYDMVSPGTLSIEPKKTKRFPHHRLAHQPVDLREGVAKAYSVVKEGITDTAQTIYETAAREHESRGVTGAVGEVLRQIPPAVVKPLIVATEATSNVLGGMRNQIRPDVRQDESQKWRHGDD
UniProt Q9Y266: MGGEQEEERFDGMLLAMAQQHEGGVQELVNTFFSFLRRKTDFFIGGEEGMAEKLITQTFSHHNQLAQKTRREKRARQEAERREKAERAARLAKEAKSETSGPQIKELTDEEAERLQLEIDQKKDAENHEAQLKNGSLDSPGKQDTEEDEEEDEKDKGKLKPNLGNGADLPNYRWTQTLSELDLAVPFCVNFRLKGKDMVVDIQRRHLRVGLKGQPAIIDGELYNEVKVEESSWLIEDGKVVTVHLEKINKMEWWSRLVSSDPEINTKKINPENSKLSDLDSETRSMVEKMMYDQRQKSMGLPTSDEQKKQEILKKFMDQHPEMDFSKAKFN

Holding throughout (assay): affinity purification with mass spectrometry; anti-GFP immunoprecipitation from monoclonal U2OS cell lines stably expressing GFP-WIPI proteins or GFP alone, nano LC-MS/MS
One assay addresses GFP-WIPI4 (human) (UniProt Q9Y484).
The target of the next assay is GFP-WIPI1 (human) (UniProt Q5MNZ9).
Assay [1] has as its target GFP-WIPI3 (human) (UniProt Q5MNZ6).
Assay [2] shares this target. This is another data set of the same source.

Read-outs that look alike come from different tables or passages of the source. Results are given in words; binding and its absence hold for the method and conditions named. In cells and extracts the contact can be indirect. A yes stands for co-enrichment or nearness to the bait. Other partners may have been found. For part of these data: A no says only that the protein was not detected with the bait.

On to “ATG2A (endogenous, identified by MS) (from UniProt Q2TAZ0 1-1938)”, for which, in the assay with GFP-WIPI4 (human), the binding entry is on record as “binds”. “ATG2B (endogenous, identified by MS) (from UniProt Q96BY7 1-2078)”: in the assay with GFP-WIPI4 (human), the binding entry was “binds”. Take “endogenous NudC (from UniProt Q9Y266 1-331)”: the binding result with GFP-WIPI1 (human) is listed as “binds”; with GFP-WIPI3 (human) [1], “no binding”; with GFP-WIPI4 (human), “binds”.

B1: endogenous TSC1 (protein, UniProt Q92574 1-1164)
chain: MAQQANVGELLAMLDSPMLGVRDDVTAVFKENLNSDRGPMLVNTLVDYYLETSSQPALHILTTLQEPHDKHLLDRINEYVGKAATRLSILSLLGHVIRLQPSWKHKLSQAPLLPSLLKCLKMDTDVVVLTTGVLVLITMLPMIPQSGKQHLLDFFDIFGRLSSWCLKKPGHVAEVYLVHLHASVYALFHRLYGMYPCNFVSFLRSHYSMKENLETFEEVVKPMMEHVRIHPELVTGSKDHELDPRRWKRLETHDVVIECAKISLDPTEASYEDGYSVSHQISARFPHRSADVTTSPYADTQNSYGCATSTPYSTSRLMLLNMPGQLPQTLSSPSTRLITEPPQATLWSPSMVCGMTTPPTSPGNVPPDLSHPYSKVFGTTAGGKGTPLGTPATSPPPAPLCHSDDYVHISLPQATVTPPRKEERMDSARPCLHRQHHLLNDRGSEEPPGSKGSVTLSDLPGFLGDLASEEDSIEKDKEEAAISRELSEITTAEAEPVVPRGGFDSPFYRDSLPGSQRKTHSAASSSQGASVNPEPLHSSLDKLGPDTPKQAFTPIDLPCGSADESPAGDRECQTSLETSIFTPSPCKIPPPTRVGFGSGQPPPYDHLFEVALPKTAHHFVIRKTEELLKKAKGNTEEDGVPSTSPMEVLDRLIQQGADAHSKELNKLPLPSKSVDWTHFGGSPPSDEIRTLRDQLLLLHNQLLYERFKRQQHALRNRRLLRKVIKAAALEEHNAAMKDQLKLQEKDIQMWKVSLQKEQARYNQLQEQRDTMVTKLHSQIRQLQHDREEFYNQSQELQTKLEDCRNMIAELRIELKKANNKVCHTELLLSQVSQKLSNSESVQQQMEFLNRQLLVLGEVNELYLEQLQNKHSDTTKEVEMMKAAYRKELEKNRSHVLQQTQRLDTSQKRILELESHLAKKDHLLLEQKKYLEDVKLQARGQLQAAESRYEAQKRITQVFELEILDLYGRLEKDGLLKKLEEEKAEAAEAAEERLDCCNDGCSDSMVGHNEEASGHNGETKTPRPSSARGSSGSRGGGGSSSSSSELSTPEKPPHQRAGPFSSRWETTMGEASASIPTTVGSLPSSKSFLGMKARELFRNKSESQCDEDGMTSSLSESLKTELGKDLGVEAKIPLNLDGPHPSPPTPDSVGQLHIMDYNETHHEHS
As for B1, in the assay with GFP-WIPI3 (human) [2], the binding result was “binds”.
